Whole data set: some 33,000 sequences, median “E-score (-0.5 to 0.5)” near -0.0034, cut for the highest 2% near 0.25. Some of the results follow.
Target: T1, Yap3 (UniProt P38749)
T1 sequence: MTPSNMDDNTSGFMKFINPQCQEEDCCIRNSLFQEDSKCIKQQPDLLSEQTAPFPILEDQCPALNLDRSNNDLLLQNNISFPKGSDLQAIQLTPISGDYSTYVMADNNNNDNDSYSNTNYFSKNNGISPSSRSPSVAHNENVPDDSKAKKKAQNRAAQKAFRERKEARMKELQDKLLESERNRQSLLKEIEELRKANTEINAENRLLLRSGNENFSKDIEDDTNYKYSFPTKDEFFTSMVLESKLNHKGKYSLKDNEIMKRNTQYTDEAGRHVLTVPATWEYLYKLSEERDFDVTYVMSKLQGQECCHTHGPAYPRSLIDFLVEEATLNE
Test: PBM E-score (8-mer binding enrichment) (E-score (-0.5 to 0.5)); higher = stronger / more preferred TF binding
Settings: protein concentration: 100 nM; construct: GST-full length
Procedure, shortened: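 Full-length yeast transcription factors or their DNA-binding domains, GST-tagged and expressed with PURExpress, were applied at about 100-200 nM to universal all-10-mer Agilent arrays. These arrays had been made double-stranded by primer extension on fresh or once-stripped slides. Detection used fluorescent anti-GST, normalisation used masliner, and E-scores for ungapped eight-base words pooled with reverse complements came from the Universal PBM Analysis Suite.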

Sequence	PBM E-score
TCCGAAGA	-0.0515
CTGTGTTC	0.0199
AACGCATA	0.132
TACGCTCA	0.103
CAGGGAAG	-0.179
CGGAGAAC	0.0479
TAGCACAA	0.0453
TGGCGAAA	0.0657
CTTCAATA	0.105
GCGTCCAA	-0.0598
GTGATAAA	0.0592
GGAGCTAC	-0.192
AGAGTCTG	-0.234
ACGCTCGC	0.0373
GTCCACGA	-0.115
AGCTAATC	0.114
TAGCCAGA	0.0046
TGTTACAA	0.233
GTACTCGA	-0.0163
GAGATCTA	-0.0844
CATATGAA	0.132
AGCCCAGC	-0.225
ACAGGGAA	-0.0163
AATTGTAA	0.066
AAGAACCC	-0.0342

Sequence	PBM E-score
GAGTGTCA	0.0969
AGAGTGCA	-0.118
TAGACGAA	0.00243
ATTTACCC	0.186
GGAGTGTA	-0.206
CCCAATAC	-0.00303
ACCATAAA	0.141
ATTAACAC	0.273
CTTTGGTA	-0.173
CCCAAGCG	-0.0714
AACTTGTA	0.0466
GCCCACCA	-0.0896
CATAACAG	0.107
CTTAAAGA	-0.0487
AGGAACGG	-0.045
TGGTAAAA	0.177
ACTAAGAT	0.255
GCGAGTGA	0.00111
AACATCAA	0.164
CGTAGGTC	-0.316
AATGCAAG	0.0231
CGTCTCAC	0.022
CGAGAGAC	-0.146
CAATCCGC	0.0216
ATACCTAT	0.124

Sequence	PBM E-score
ATAGAGGG	-0.0352
ACTTCTCC	-0.174
TCCCGCCA	-0.173
GGCTTATA	-0.00779
ACCGAGTA	0.0231
TATTGCGA	0.113
CTGGTATA	-0.0636
ATATATTG	0.0595
GAGCTGAA	-0.121
AATCACGC	0.0615
ATTGGGCG	-0.105
CTATTTAC	0.238
AAGATTAA	0.167
GAAACCTA	-0.0189
GACCCTTA	-0.199
CATTCCTC	0.0145
CATCACGC	-0.0538
ATGCTTAA	0.0675
AAGCTACA	0.0166
ACTACAGT	0.0926
CAAGCCTG	-0.113
ATGTTGCC	-0.0527
GCGTTCAC	-0.0294
GAGTCTGA	-0.176
ATTTGTAC	0.0689

Sequence	PBM E-score
CATAGACA	0.0318
AGCGGCCC	-0.374
AAATGCGT	0.162
TCATGTAA	0.196
CGACACAG	-0.044
AGCATGCT	-0.134
CCCAACAA	0.0572
ATTATTAG	0.259
GGTCTCAA	-0.131
GCCTGTGA	-0.192
GTCGTCAC	-0.0421
ACGGTGAA	0.15
CTAGATCC	-0.0756
CCTAAACC	-0.0339
ATTAGGTC	0.286
AGCACTTA	-0.0855
CTACGTTA	0.0868
GTTGTTCA	-0.0828
TAGTACTA	0.0913
GAATTAAA	0.00976
ACCGCCGG	-0.285
TTCTCAAA	0.156
CCAGTTTC	-0.063
CCACGGAG	-0.0187
AAGCTAAG	-0.219

Sequence	PBM E-score
TCCAAGAA	-0.0303
CACCCAGG	-0.289
CACATACA	-0.0173
ATTTTGGG	-0.0152
CAAACTTA	0.209
CTAAACCC	0.00034
GGTCGTCA	-0.0105
AACTACCA	0.119
CACCACGG	-0.366
GCTCTGCA	-0.287
AAGCTTAA	0.105
ACACCTCT	0.0264
CTCCCATC	0.0634
GCCACGGA	-0.109
AACAACTT	0.185
CAGAGACA	-0.245
GACTATCC	-0.189
ATTAGTAG	0.123
GCTGCAAA	0.142
TTATGAAA	0.204
AGCTCGTC	-0.158
CGGCCTCA	-0.0347
ACAACTTC	0.247
ACACTTTG	0.0475
GAATTAGA	0.136

Sequence	PBM E-score
GTGGGAAA	0.118
CAACGACC	0.0111
CCGATTCA	-0.0345
AGGACCCC	-0.197
CGGGCCCA	-0.341
CCGCAAAA	0.076
ATTAGACC	-0.176
CCGGGTAC	-0.22
CTCACCCA	-0.0382
ACCTCTTG	-0.188
TAGCACGA	-0.0214
CTACACTC	-0.135
TGCTACCA	-0.129
AACCCGAA	-0.0324
ATTTGCGG	0.0995
CCGATGCC	-0.0142
TAGCGAGA	-0.0444
AATCGAAG	0.256
ATGGCTGA	-0.0094
CGCCGGAC	-0.191
CAATCCTG	0.0137
CACTCCGG	-0.00027
AGACCCGA	0.023
CCGCGTCA	-0.161
AACCCTCT	-0.239

Sequence	PBM E-score
AGCCTAGC	-0.091
TACTAGTA	0.127
AATTATCG	0.267
TGCGCACA	0.0919
ATATTACC	0.276
GAGGTCCC	-0.281
CAGCCGCC	-0.177
ACTAGAGC	0.0444
ACATAGGA	-0.0244
GCTCTCGA	-0.113
GAGTTCGA	0.123
AATCGGGG	-0.146
CGCGGGGC	-0.197
GCTAGCAA	-0.061
AGAAGAAA	0.0399
AATATAGC	0.133
GCTAACTA	0.172
AGTACGAG	0.0722
CGACTTAG	-0.0491
AACGGCGT	0.0396
GAGTTTAC	-0.103
ACTCCAGT	0.0145
CTACTGTC	0.134
ACCAAACG	-0.0718
ACTAACAT	0.242

Sequence	PBM E-score
GCCCCTTA	-0.145
ACTCTTCG	-0.028
GCCCTAAA	-0.249
CCATTTCA	-0.0292
AGCAGATG	-0.0141
CGTGACAC	0.0299
TATAGAGA	-0.0187
CGCGACTC	-0.0858
AAAGCGGG	-0.0861
AATCGAAA	0.0602
CTCATGTA	0.0517
GCAACGAC	-0.0831
GAGACCAC	-0.0698
CGATCGGA	-0.0721
AGTTTGTA	0.0697
CCGACTCA	-0.03
CAAGAGTA	0.0601
GACCTACC	-0.2
ATTTGAAG	-0.0122
CGATTACG	0.181
ATATCGAC	0.218
CGTATTCA	0.134
AGGTTGAT	-0.169
ATACCAGC	-0.0358
CCGTTAAC	0.00505

Sequence	PBM E-score
GGGCCGCA	-0.247
AGTCCCAG	-0.189
AAAAAATT	0.0987
CACCAGGG	-0.224
ACCAAGCT	0.132
CATGTTGG	-0.0821
GGCAATCA	0.147
ACGAGTAT	0.0978
AGTTGGAC	0.037
CTCCTTGA	-0.104
ACTGCTGA	-0.00706
AACGCGCA	0.103
ACAAACCA	0.0141
AAATGAAG	0.205
CTAAGCCA	-0.235
ATAATAAC	0.173
ACTCCACG	-0.121
CTGAGTAA	0.246
ATACCCTG	-0.0024
AGATCAAA	0.0085
AGAATAAG	0.11
CCTGTAGA	0.0297
GCCATCTA	-0.0168
CCAGATAA	0.0371
GGCATTTA	-0.0673

Sequence	PBM E-score
AAGGTGGG	-0.193
AACCTAAC	-0.00525
TGCCCAAA	-0.236
ATTCGCCC	-0.0869
CAACCGGC	-0.0724
ATTAGCTA	0.15
ATAGCGCC	0.0505
CAAGCAGA	0.0726
ATGTGTAC	0.00561
AGCACTAC	-0.088
ATGAGCTG	-0.0855
AAGTGCCT	-0.238
ACCCTGCG	-0.0961
CCAGACGC	-0.104
CAACTAAC	0.246
ACGCGTGG	-0.0187
CCTATGGA	-0.0335
GCGGAGGA	-0.215
AAACGGAA	0.263
CCTGGTGC	-0.102
ATGCTCGG	0.0894
TTAGTCAA	0.27
AGGTCAGA	-0.144
CGTTGTCA	0.0756
AAACGTCT	-0.0679

Sequence	PBM E-score
AAGTGGAT	-0.171
CTCCCGGC	-0.17
CGGGTGGC	-0.289
CCGTGACA	-0.0217
AGGCTTTG	-0.126
GTATCTGA	0.133
AGGTCATG	-0.136
GATCTGTA	0.102
AGCTTAAT	0.13
CTCTGCTC	-0.117
CCTTGTCC	0.0247
TACGTGGA	0.045
AGTCAGCA	-0.0413
ACAGGGGA	-0.191
CGTTGAAG	-0.0864
GCGAGTAC	0.141
ATACTTGC	0.148
CCTCTAGA	-0.00835
CAACTGTC	-0.0969
ATACTTCC	0.0777
CCGAGGCC	-0.185
CGATCTGC	0.0136
GCGAGGTA	-0.0952
GTCGATGA	-0.0348
GACTGGGC	-0.246

Sequence	PBM E-score
ACGTGGGG	-0.169
ATACGAGA	-0.119
GAATACTC	-0.0585
ACTCGGGG	-0.161
CGGCAAAC	0.0461
ACATCGCT	0.0617
GGACTGTA	-0.0642
AATGCGGT	-0.139
CCTCCAGA	-0.18
AGGCAGAT	-0.00338
AGGTTCCA	-0.0733
CGTTTTAG	-0.0422
GGACCACA	-0.0509
GCTCAGGA	-0.0894
AAAGTGTT	0.177
ACGAAGTA	-0.0215
AATATGTA	0.222
AGGTTCGC	-0.248
ACGACAGG	0.0227
ACTCCGCC	-0.124
ACTCACCC	-0.0428
TAGAACGA	0.0804
ATACACCC	0.03
TGAACGAA	-0.027
CAAGTGAA	0.0621

Looked up above.
Entry of AGGTTCCA under PBM E-score: -0.0733
Entry of GCTCAGGA under PBM E-score: -0.0894
Entry of ACGAAGTA under PBM E-score: -0.0215
Entry of TGAACGAA under PBM E-score: -0.027
Entry of ATACACCC under PBM E-score: 0.03
Entry of GAATACTC under PBM E-score: -0.0585

More results

Sequence	PBM E-score
TAAATGCA	0.211
GGAGTCCA	-0.111
TAATTAAA	0.115
ATCATTGG	0.033
CATCCCTC	-0.16
AGTGTTGC	0.129
CAACGGCG	-0.0242
AAGAGAAG	-0.0633
AGCGTTGC	0.0498
AGTCAGAG	-0.0578
TAATCGCA	0.123
TGAGGCCA	0.0548
CGAGGTTA	0.145
CCTTTTTA	-0.0267
ACTGTGCA	-0.0351
CATTGGAC	-0.042
AGCCTACG	0.0774
CGTAAATC	-0.00431
TAACATGA	0.171
TCGGTGAA	0.0338
AAGCTTAC	0.00508
ATTAAGCA	0.0634
CAGTGCTC	-0.138
AAAACCTC	0.112
GAGGGAGA	-0.171

A second format for some results above:
Sequence | PBM E-score
CCAGTTTC | -0.063
CAAACTTA | 0.209
GCTAGCAA | -0.061
CTACTGTC | 0.134
TACGTGGA | 0.045
CATTGGAC | -0.042

More records.

Sequence	PBM E-score
CGCCCTGC	-0.202
ATAGTAAG	0.152
AGTCCGCC	-0.0339
CACGTACA	0.0193
CGCAACCG	-0.126
GATTTAGA	0.0922
CAGCTTCG	-0.0144
GCGAGTTA	0.126
GACTTCGA	-0.00531
ATAGGATG	0.198
AATCTATA	0.164
AAGCGTAC	-0.044
CGGGGTGA	-0.0798
AGCGAGGC	-0.0759
AGGAAGCA	-0.123
AGATTCAT	-0.104
AGTTTTTA	0.0105
CAGTCGCC	-0.204
TGAACCCA	-0.0237
